Results: US12351855B2, “Bioelectronic circuits, systems and methods for preparing and using them” (priority 2019, dated 2025)

Assay: Conductance of biotinylated ϕ29 polymerase wired into streptavidin-functionalized palladium junction

B1: bis-biotinylated polymerase: exonuclease-deleted ϕ29 polymerase with biotinylated Avitags inserted between G111/K112 and E279/D280 (protein)
chain: MKHMPRKMYSCAFATTTKVEDCRVWAYGYMNIEDHSEYKIGNSLDEFMAWVLKVQADLYFHNLKFDGAFIINWLERNGFKWSADGLPNTYNTIISRMGQWYMIDICLGYKGGLNDIFEAQKIEWHEKRKIHTVIYDSLKKLPFPVKKIAKDFKLTVLKGDIDYHKERPVGYKITPEEYAYIKNDIQIIAEALLIQFKQGLDRMTAGSDSLKGFKDIITTKKFKKVFPTLSLGLDKEVRYAYRGGFTWLNDRFKEKEIGEGMVFDVNSLYPAQMYSRLLPYGEPIVFEGKYVWDEGLNDIFEAQKIEWHEDYPLHIQHIRCEFELKEGYIPTIQIKRSRFYKGNEYLKSSGGEIADLWLSNVDLELMKEHYDLYNVEYISGLKFKATTGLFKDFIDKWTYIKTTSEGAIKQLAKLMLNSLYGKFASNPDVTGKVPYLKENGALGFRLGEEETKDPVYTPMGVFITAWARYTTITAAQACYDRIIYCDTDSIHLTGTEIPDVIKDIVDPKKLGYWAHESTFKRAKYLRQKTYIQDIYMKEVDGKLVEGSPDDYTDIKFSVKCAGMTDKIKKEVTFENFKVGFSRKMKPKPVQVPGGVVLVDDTFTIK
With B1 the “current after formation of streptavidin-ϕ29 polymerase contact” value (at 50 mV bias) was “about 60 pA” and the highest conductance feature (thiolated streptavidin on Pd electrodes, 50 mV bias) was “about 4 nS”.
